Results as given in the supplement of paper PMC10849652.
This is one part of the list.

Chains of the proteins cited; added tags and fusions are not shown. Lines headed by an entry give the natural chain unless they say otherwise; changes in a name come on top.
UniProt Q9UPR3: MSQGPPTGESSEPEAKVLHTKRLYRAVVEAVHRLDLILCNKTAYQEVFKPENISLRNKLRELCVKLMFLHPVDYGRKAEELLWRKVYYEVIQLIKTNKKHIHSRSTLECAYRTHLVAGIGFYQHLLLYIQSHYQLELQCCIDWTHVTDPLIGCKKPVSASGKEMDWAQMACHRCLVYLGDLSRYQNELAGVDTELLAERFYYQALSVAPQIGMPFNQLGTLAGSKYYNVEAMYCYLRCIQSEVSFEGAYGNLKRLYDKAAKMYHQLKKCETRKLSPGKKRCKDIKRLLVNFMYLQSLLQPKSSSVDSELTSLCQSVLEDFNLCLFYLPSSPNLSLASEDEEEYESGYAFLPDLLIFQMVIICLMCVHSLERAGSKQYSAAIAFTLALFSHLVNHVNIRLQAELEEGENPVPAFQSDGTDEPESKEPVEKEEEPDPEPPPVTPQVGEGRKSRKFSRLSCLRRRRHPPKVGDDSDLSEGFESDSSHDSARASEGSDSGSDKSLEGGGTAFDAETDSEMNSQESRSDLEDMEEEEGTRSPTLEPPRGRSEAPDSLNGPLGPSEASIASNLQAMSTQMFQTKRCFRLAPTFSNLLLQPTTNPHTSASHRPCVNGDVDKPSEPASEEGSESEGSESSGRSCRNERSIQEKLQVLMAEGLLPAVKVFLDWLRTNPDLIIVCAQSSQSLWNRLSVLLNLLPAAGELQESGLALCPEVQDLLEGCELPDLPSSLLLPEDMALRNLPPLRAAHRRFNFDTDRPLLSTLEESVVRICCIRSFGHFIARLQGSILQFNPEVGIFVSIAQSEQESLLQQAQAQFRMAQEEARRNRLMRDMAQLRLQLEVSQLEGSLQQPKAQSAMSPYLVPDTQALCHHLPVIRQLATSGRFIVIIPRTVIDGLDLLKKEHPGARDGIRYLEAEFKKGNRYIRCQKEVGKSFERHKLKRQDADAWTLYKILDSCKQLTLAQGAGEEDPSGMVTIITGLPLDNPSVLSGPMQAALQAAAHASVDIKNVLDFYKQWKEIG
UniProt Q15796, whole entry, looked up: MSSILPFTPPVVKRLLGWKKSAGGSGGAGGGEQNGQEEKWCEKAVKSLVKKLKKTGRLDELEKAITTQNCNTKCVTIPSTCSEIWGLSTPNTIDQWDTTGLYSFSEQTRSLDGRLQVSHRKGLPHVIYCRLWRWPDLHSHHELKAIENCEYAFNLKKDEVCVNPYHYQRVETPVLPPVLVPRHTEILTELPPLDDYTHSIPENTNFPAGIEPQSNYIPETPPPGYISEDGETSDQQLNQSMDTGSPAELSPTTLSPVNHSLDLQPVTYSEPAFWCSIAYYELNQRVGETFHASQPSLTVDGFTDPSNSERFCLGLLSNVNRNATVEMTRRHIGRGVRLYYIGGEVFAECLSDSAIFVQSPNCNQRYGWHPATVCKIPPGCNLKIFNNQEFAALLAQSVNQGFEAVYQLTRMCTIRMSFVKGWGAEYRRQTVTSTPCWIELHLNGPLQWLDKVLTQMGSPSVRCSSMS
UniProt P35610: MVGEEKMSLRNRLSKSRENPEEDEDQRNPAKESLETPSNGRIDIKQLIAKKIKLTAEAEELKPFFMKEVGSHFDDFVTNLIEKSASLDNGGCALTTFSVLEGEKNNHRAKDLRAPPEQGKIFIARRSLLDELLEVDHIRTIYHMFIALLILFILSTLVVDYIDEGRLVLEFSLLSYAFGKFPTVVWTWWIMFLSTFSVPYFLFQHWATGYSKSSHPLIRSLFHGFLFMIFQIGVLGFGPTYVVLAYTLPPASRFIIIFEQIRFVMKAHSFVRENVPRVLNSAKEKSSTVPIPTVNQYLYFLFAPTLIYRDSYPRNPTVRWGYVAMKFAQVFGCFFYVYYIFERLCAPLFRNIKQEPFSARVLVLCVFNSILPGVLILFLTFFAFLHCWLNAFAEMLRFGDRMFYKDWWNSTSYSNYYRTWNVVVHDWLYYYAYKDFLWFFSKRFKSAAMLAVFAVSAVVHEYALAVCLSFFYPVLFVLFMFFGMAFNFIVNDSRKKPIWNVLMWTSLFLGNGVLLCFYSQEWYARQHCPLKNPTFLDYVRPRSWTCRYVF
UniProt Q969G3, whole entry, looked up: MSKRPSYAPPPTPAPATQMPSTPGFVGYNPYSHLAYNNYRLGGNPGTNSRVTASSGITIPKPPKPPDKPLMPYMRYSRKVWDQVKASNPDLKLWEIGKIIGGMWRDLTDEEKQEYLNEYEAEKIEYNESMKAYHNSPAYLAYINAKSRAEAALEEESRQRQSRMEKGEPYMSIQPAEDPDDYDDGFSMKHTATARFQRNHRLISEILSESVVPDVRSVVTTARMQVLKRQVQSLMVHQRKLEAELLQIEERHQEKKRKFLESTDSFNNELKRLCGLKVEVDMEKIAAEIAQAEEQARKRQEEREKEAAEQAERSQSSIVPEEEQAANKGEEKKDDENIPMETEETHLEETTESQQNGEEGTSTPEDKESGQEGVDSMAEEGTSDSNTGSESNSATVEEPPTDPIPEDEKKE
UniProt O60271: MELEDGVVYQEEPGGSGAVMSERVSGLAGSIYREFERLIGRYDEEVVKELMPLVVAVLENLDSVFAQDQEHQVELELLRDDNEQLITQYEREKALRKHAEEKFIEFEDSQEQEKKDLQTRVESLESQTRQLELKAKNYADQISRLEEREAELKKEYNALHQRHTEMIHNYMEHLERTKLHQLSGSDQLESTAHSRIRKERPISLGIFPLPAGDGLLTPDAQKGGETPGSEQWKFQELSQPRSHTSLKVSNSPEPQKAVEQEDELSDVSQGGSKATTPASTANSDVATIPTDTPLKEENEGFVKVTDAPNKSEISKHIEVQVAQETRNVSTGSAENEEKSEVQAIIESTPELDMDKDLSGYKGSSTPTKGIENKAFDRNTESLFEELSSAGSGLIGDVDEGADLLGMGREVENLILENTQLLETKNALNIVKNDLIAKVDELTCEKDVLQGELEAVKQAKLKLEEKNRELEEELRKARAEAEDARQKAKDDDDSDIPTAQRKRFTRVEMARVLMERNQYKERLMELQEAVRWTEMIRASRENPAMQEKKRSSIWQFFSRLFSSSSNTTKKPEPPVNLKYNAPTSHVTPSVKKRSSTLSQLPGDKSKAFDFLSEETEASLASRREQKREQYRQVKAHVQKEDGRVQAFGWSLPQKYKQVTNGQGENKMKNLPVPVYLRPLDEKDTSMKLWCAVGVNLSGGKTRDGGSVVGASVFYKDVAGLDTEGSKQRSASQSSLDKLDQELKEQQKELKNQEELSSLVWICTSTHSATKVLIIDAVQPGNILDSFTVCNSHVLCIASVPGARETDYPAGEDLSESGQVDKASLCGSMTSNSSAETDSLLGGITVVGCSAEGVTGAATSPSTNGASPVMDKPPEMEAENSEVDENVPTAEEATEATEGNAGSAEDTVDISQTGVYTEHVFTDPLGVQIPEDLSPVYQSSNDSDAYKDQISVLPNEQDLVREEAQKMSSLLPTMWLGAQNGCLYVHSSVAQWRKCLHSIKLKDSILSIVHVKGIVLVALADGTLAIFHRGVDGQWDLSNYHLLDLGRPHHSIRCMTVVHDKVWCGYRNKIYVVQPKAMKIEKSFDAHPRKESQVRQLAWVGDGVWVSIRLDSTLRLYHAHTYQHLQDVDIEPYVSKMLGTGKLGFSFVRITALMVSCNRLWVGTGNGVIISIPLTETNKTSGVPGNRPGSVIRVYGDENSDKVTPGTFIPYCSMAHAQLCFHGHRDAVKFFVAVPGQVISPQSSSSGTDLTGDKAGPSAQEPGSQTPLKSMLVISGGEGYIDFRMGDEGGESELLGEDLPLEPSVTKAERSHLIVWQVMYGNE
UniProt P08047, whole entry, looked up: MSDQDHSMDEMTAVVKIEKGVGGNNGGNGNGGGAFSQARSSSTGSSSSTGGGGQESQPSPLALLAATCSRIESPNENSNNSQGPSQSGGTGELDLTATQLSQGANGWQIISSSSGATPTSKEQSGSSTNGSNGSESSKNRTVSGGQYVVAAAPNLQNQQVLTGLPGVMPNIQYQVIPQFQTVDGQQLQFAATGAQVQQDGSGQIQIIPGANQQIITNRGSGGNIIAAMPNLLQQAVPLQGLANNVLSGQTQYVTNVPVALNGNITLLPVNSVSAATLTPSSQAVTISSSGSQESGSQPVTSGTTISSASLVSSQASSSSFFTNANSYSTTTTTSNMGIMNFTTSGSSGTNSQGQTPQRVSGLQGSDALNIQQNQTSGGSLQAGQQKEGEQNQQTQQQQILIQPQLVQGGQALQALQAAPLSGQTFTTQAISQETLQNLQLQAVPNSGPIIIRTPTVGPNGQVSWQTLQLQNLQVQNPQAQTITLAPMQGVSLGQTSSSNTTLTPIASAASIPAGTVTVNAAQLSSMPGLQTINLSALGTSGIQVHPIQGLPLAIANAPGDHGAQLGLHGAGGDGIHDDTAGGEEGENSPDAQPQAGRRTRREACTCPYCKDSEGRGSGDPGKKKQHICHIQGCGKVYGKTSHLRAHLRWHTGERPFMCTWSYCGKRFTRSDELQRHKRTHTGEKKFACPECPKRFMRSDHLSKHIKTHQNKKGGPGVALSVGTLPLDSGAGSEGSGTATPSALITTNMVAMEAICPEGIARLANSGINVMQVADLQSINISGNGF
UniProt Q9NXE4: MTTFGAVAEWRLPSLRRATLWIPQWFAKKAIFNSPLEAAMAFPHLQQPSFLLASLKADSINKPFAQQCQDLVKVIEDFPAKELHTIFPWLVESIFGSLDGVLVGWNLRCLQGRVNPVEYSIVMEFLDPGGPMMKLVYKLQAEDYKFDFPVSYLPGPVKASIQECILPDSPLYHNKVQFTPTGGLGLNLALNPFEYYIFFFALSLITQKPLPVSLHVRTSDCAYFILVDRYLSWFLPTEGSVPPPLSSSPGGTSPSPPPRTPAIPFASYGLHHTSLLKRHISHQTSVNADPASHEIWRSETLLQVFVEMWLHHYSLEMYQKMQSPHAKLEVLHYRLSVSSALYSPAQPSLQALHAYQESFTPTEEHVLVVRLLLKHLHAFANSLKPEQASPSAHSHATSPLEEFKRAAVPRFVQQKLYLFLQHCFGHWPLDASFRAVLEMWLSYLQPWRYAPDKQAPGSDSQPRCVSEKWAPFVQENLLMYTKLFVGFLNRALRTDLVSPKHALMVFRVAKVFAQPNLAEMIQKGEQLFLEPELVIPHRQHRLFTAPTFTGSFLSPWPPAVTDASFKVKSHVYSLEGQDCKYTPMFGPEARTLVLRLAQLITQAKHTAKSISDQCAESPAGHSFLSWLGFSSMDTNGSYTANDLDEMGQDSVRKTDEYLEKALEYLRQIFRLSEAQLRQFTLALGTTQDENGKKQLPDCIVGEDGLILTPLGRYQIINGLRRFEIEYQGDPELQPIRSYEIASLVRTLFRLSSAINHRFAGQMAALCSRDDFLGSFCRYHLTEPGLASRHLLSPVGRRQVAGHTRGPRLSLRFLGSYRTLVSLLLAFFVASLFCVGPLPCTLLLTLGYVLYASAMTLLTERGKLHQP
UniProt P62318, whole entry, looked up: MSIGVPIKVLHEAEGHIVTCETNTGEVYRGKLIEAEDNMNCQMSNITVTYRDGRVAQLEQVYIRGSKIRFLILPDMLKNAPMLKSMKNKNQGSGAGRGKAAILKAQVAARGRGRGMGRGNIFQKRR
UniProt P08579, whole entry, looked up: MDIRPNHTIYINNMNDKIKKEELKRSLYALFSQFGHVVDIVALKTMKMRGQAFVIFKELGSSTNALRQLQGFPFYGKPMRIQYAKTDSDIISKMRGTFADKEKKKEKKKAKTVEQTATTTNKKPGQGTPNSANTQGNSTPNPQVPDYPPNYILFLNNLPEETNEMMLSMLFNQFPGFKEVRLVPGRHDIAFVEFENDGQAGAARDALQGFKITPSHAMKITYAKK

Legend:
Assay in all cases: log2 fold change, soluble protein after heating vs DMSO (PISA); higher = thermal stabilisation; K562 cells, 10 uM, 30 min; active = over 0.2 and 3.5 SD of the protein, either way, in both replicates (recomputed)
[1] = compound: CS(=O)(=O)c1ccc(-c2cnc(N)c(C(=O)Nc3ccccc3)n2)cc1
Method in brief: (§1)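 Values are thermal stability changes relative to control samples and are taken from duplicates. They are stated as log2 fold changes. Before quantification by TMTpro 16plex LC-MS/MS with equalised channel sums, K562 cells at 2×10^6 cells/mL were treated with 10 μM compound for 30 min, heated in aliquots for 3 min across 48°C-58°C, pooled, extracted in PBS with 0.5% NP-40 at 4°C, and centrifuged at 21,000xg for 90 min to give the soluble supernatant.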

crizotinib = compound: C[C@@H](Oc1cc(-c2cnn(C3CCNCC3)c2)cnc1N)c1c(Cl)ccc(F)c1Cl [crizotinib]
Method in brief: as §1

[2] = compound: C[C@@H]1COCCN1C2=NC(=NC(=C2)C3(CC3)S(=O)(=O)C)C4=C5C=CNC5=CC=C4
Method in brief: as §1

[3] = compound: C[C@H](C1=CC=C(C=C1)C(=O)NC2=C3C=CNC3=NC=C2)N
Method in brief: as §1

duvelisib = compound: C[C@H](Nc1ncnc2nc[nH]c12)c1cc2cccc(Cl)c2c(=O)n1-c1ccccc1 [duvelisib]
Method in brief: as §1

tozasertib = compound: Cc1cc(Nc2cc(N3CCN(C)CC3)nc(Sc3ccc(NC(=O)C4CC4)cc3)n2)n[nH]1 [tozasertib]
Method in brief: as §1

[4] = compound: Cc1cc(SCc2sc(-c3ccc(C(F)(F)F)cc3)nc2C)ccc1OCC(=O)O
Method in brief: as §1

doramapimod = compound: Cc1ccc(-n2nc(C(C)(C)C)cc2NC(=O)Nc2ccc(OCCN3CCOCC3)c3ccccc23)cc1 [doramapimod]
Method in brief: as §1

ispinesib = compound: Cc1ccc(C(=O)N(CCCN)[C@@H](c2nc3cc(Cl)ccc3c(=O)n2Cc2ccccc2)C(C)C)cc1 [ispinesib]
Method in brief: as §1

bafetinib = compound: Cc1ccc(NC(=O)c2ccc(CN3CC[C@H](N(C)C)C3)c(C(F)(F)F)c2)cc1Nc1nccc(-c2cncnc2)n1 [bafetinib]
Method in brief: as §1

nilotinib = compound: Cc1cn(-c2cc(NC(=O)c3ccc(C)c(Nc4nccc(-c5cccnc5)n4)c3)cc(C(F)(F)F)c2)cn1 [nilotinib]
Method in brief: as §1

[5] = compound: Cc1nc(Nc2n[nH]c3c2CN(C(=O)N[C@H](CN(C)C)c2ccccc2)C3(C)C)c2sccc2n1
Method in brief: as §1

dasatinib = compound: Cc1nc(Nc2ncc(C(=O)Nc3c(C)cccc3Cl)s2)cc(N2CCN(CCO)CC2)n1 [dasatinib]
Method in brief: as §1

[6] = compound: Cc1ncc(-c2ccnc(Nc3ccc(S(C)(=O)=O)cc3)n2)n1C(C)C
Method in brief: as §1

[7] = compound: Cn1cc(-c2ccc3c(c2)CCN3C(=O)Cc2cccc(C(F)(F)F)c2)c2c(N)ncnc21
Method in brief: as §1

[8] = compound: Cn1cc(-c2ccc3nnc(C(F)(F)c4ccc5ncccc5c4)n3n2)cn1
Method in brief: as §1

tipifarnib = compound: Cn1cncc1[C@@](N)(c1ccc(Cl)cc1)c1ccc2c(c1)c(-c1cccc(Cl)c1)cc(=O)n2C [tipifarnib]
Method in brief: as §1

mubritinib = compound: FC(F)(F)c1ccc(/C=C/c2nc(COc3ccc(CCCCn4ccnn4)cc3)co2)cc1 [mubritinib]
Method in brief: as §1

gandotinib = compound: Cc1cc(Nc2cc(CN3CCOCC3)c3nc(C)c(Cc4ccc(Cl)cc4F)n3n2)n[nH]1 [gandotinib]
Method in brief: as §1

[9] = compound: Cc1cccc(CC(=O)N2CCc3c2ccc(-c2cn(C)c4ncnc(N)c24)c3F)n1
Method in brief: as §1

SMG5 (UniProt Q9UPR3) was tested, and the log2 fold change [1] was inactive: -0.091, the log2 fold change (crizotinib) was inactive: -0.144 and the log2 fold change [2] was inactive: -0.06. The log2 fold change [3] was inactive: 0.091, the log2 fold change (duvelisib) was inactive: -0.051 and the log2 fold change (tozasertib) was inactive: 0.005. For the same target, the log2 fold change [4] was inactive: 0.106, the log2 fold change (doramapimod) was inactive: 0.114 and the log2 fold change (ispinesib) was inactive: -0.076. The log2 fold change (bafetinib) was inactive: 0.012, the log2 fold change (nilotinib) was inactive: 0.023 and the log2 fold change [5] was inactive: -0.025. The log2 fold change (dasatinib) was inactive: -0.038, the log2 fold change [6] was inactive: -0.074 and the log2 fold change [7] was inactive: -0.127. For the same target, the log2 fold change [8] was inactive: -0.068, the log2 fold change (tipifarnib) was inactive: -0.026 and the log2 fold change (mubritinib) was inactive: -0.108.

SMAD2 (UniProt Q15796) was tested, and the log2 fold change [1] was inactive: 0.132, the log2 fold change (crizotinib) was inactive: 0.255 and the log2 fold change [2] was inactive: -0.015. For the same target, the log2 fold change [3] was inactive: 0.012, the log2 fold change (gandotinib) was inactive: 0.045 and the log2 fold change [4] was inactive: 0.071. The log2 fold change (doramapimod) was inactive: -0.04, the log2 fold change (ispinesib) was inactive: -0.019 and the log2 fold change (bafetinib) was inactive: -0.019. For the same target, the log2 fold change [9] was inactive: -0.037, the log2 fold change (nilotinib) was inactive: -0.085 and the log2 fold change [5] was inactive: -0.123. The log2 fold change (dasatinib) was inactive: -0.13, the log2 fold change [6] was inactive: -0.14 and the log2 fold change [7] was inactive: 0.023. The log2 fold change [8] was inactive: 0.057, the log2 fold change (tipifarnib) was inactive: 0.012 and the log2 fold change (mubritinib) was inactive: 0.022.

SOAT1 (UniProt P35610) was tested, and the log2 fold change [1] was inactive: 0.066, the log2 fold change (crizotinib) was inactive: 0.139 and the log2 fold change [2] was inactive: 0.094. For the same target, the log2 fold change [3] was inactive: -0.018, the log2 fold change (gandotinib) was inactive: 0.079 and the log2 fold change [4] was inactive: -0.026. The log2 fold change (doramapimod) was active: 0.448, the log2 fold change (ispinesib) was inactive: 0.158 and the log2 fold change (bafetinib) was inactive: 0.085. The log2 fold change [9] was inactive: 0.011, the log2 fold change (nilotinib) was active: 0.566 and the log2 fold change [5] was inactive: -0.001. The log2 fold change (dasatinib) was inactive: 0.257, the log2 fold change [6] was inactive: -0.021 and the log2 fold change [7] was inactive: 0.031. The log2 fold change [8] was inactive: -0.058, the log2 fold change (tipifarnib) was inactive: 0.039 and the log2 fold change (mubritinib) was inactive: 0.096.

With SMARCE1 (UniProt Q969G3) the log2 fold change [1] was inactive: -0.088, the log2 fold change (crizotinib) was inactive: 0.011 and the log2 fold change [2] was inactive: 0.048. The log2 fold change [3] was inactive: 0.093, the log2 fold change (gandotinib) was inactive: -0.087 and the log2 fold change [4] was inactive: 0.135. For the same target, the log2 fold change (doramapimod) was inactive: 0.052, the log2 fold change (ispinesib) was inactive: 0.048 and the log2 fold change (bafetinib) was inactive: -0.181. For the same target, the log2 fold change [9] was inactive: 0.041, the log2 fold change (nilotinib) was inactive: -0.191 and the log2 fold change [5] was inactive: 0.16. The log2 fold change (dasatinib) was inactive: -0.07, the log2 fold change [6] was inactive: -0.055 and the log2 fold change [7] was inactive: -0.056. The log2 fold change [8] was inactive: -0.09, the log2 fold change (tipifarnib) was inactive: -0.082 and the log2 fold change (mubritinib) was inactive: -0.274.

With SPAG9 (UniProt O60271) the log2 fold change [1] was inactive: 0.046, the log2 fold change (crizotinib) was inactive: -0.056 and the log2 fold change [2] was inactive: -0.002. The log2 fold change [3] was inactive: 0.065, the log2 fold change (gandotinib) was inactive: -0.034 and the log2 fold change [4] was inactive: 0.012. For the same target, the log2 fold change (doramapimod) was inactive: 0.023, the log2 fold change (ispinesib) was inactive: -0.188 and the log2 fold change (bafetinib) was inactive: -0.056. The log2 fold change [9] was inactive: -0.014, the log2 fold change (nilotinib) was inactive: -0.039 and the log2 fold change [5] was inactive: -0.074. The log2 fold change (dasatinib) was inactive: -0.076, the log2 fold change [6] was inactive: 0.015 and the log2 fold change [7] was inactive: -0.018. For the same target, the log2 fold change [8] was inactive: 0.012, the log2 fold change (tipifarnib) was inactive: -0.005 and the log2 fold change (mubritinib) was inactive: 0.054.

For SP1 (UniProt P08047), the log2 fold change [1] was inactive: 0.031, the log2 fold change (crizotinib) was inactive: -0.038 and the log2 fold change [2] was inactive: -0.044. For the same target, the log2 fold change [3] was inactive: 0.042, the log2 fold change (gandotinib) was inactive: 0.083 and the log2 fold change [4] was inactive: 0.023. For the same target, the log2 fold change (doramapimod) was inactive: 0.036, the log2 fold change (ispinesib) was inactive: -0.113 and the log2 fold change (bafetinib) was inactive: -0.041. The log2 fold change [9] was inactive: -0.006, the log2 fold change (nilotinib) was inactive: 0.005 and the log2 fold change [5] was inactive: -0.003. The log2 fold change (dasatinib) was inactive: -0.005, the log2 fold change [6] was inactive: -0.02 and the log2 fold change [7] was inactive: -0.018. For the same target, the log2 fold change [8] was inactive: 0.091, the log2 fold change (tipifarnib) was inactive: 0.01 and the log2 fold change (mubritinib) was inactive: -0.023.

For SMPD4 isoform 4 (UniProt Q9NXE4), the log2 fold change [1] was inactive: -0.026, the log2 fold change (crizotinib) was inactive: -0.215 and the log2 fold change [2] was inactive: 0.005. The log2 fold change [3] was inactive: 0.01, the log2 fold change (gandotinib) was inactive: -0.133 and the log2 fold change [4] was inactive: 0.025. For the same target, the log2 fold change (doramapimod) was inactive: 0.002, the log2 fold change (ispinesib) was inactive: -0.255 and the log2 fold change (bafetinib) was inactive: -0.031. The log2 fold change [9] was inactive: 0.122, the log2 fold change (nilotinib) was inactive: -0.1 and the log2 fold change [5] was inactive: -0.076. For the same target, the log2 fold change (dasatinib) was inactive: -0.037, the log2 fold change [6] was inactive: 0.025 and the log2 fold change [7] was inactive: 0.098. The log2 fold change [8] was inactive: 0.04, the log2 fold change (tipifarnib) was inactive: -0.016 and the log2 fold change (mubritinib) was inactive: 0.148.

For SNRPD3 (UniProt P62318), the log2 fold change [1] was inactive: -0.102, the log2 fold change (crizotinib) was inactive: 0.011 and the log2 fold change [2] was inactive: 0.036. For the same target, the log2 fold change [3] was inactive: 0.041, the log2 fold change (gandotinib) was inactive: 0.034 and the log2 fold change [4] was inactive: -0.04. The log2 fold change (doramapimod) was inactive: 0.055, the log2 fold change (ispinesib) was inactive: 0.006 and the log2 fold change (bafetinib) was inactive: 0.013. The log2 fold change [9] was inactive: -0.077, the log2 fold change (nilotinib) was inactive: 0.034 and the log2 fold change [5] was inactive: 0.077. The log2 fold change (dasatinib) was inactive: 0.08, the log2 fold change [6] was inactive: 0.107 and the log2 fold change [7] was inactive: -0.097. For the same target, the log2 fold change [8] was inactive: -0.06, the log2 fold change (tipifarnib) was inactive: 0.024 and the log2 fold change (mubritinib) was inactive: 0.011.

In the case of SNRPB2 (UniProt P08579), the log2 fold change [1] is reported as inactive: -0.014, the log2 fold change (crizotinib) is reported as inactive: 0.02 and the log2 fold change [2] is reported as inactive: -0.024. The log2 fold change [3] was inactive: 0.008, the log2 fold change (gandotinib) was inactive: 0.026 and the log2 fold change [4] was inactive: -0.048. For the same target, the log2 fold change (doramapimod) was inactive: -0.01, the log2 fold change (ispinesib) was inactive: 0.027 and the log2 fold change (bafetinib) was inactive: -0.034. The log2 fold change [9] was inactive: -0.081, the log2 fold change (nilotinib) was inactive: 0.04 and the log2 fold change [5] was inactive: 0.048. The log2 fold change (dasatinib) was inactive: 0.075, the log2 fold change [6] was inactive: 0.135 and the log2 fold change [7] was inactive: -0.116. For the same target, the log2 fold change [8] was inactive: -0.025, the log2 fold change (tipifarnib) was inactive: 0.084 and the log2 fold change (mubritinib) was inactive: 0.045.
